Laboratory results as given in publication PMC11520850.
These are yes or no findings as the source states them, for the method shown. Binding seen in cells or lysates may run through a third protein. Some binding calls cover weakened binding; strength is not graded here.

By UniProt entry, the sequences of proteins in these tests, tags left out.
UniProt Q3KR59: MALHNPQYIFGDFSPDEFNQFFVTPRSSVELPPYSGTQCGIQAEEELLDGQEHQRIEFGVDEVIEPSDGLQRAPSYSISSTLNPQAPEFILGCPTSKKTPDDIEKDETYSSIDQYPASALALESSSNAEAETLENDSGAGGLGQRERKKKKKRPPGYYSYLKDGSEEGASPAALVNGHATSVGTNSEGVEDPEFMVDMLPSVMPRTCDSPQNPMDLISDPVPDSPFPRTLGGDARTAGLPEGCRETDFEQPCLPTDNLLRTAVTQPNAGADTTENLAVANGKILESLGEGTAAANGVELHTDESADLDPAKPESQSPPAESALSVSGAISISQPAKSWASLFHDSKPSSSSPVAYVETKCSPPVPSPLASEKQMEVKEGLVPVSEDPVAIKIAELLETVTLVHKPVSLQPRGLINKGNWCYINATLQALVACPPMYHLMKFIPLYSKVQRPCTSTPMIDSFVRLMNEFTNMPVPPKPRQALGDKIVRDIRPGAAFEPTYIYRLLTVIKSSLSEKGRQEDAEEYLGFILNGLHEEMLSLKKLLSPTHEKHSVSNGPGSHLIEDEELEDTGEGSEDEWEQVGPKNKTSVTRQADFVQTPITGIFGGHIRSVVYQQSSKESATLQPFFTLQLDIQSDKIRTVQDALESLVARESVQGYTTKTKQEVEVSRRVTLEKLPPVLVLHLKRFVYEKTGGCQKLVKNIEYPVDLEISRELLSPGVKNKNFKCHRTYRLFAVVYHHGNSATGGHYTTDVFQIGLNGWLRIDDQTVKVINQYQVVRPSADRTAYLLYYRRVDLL
UniProt P62961: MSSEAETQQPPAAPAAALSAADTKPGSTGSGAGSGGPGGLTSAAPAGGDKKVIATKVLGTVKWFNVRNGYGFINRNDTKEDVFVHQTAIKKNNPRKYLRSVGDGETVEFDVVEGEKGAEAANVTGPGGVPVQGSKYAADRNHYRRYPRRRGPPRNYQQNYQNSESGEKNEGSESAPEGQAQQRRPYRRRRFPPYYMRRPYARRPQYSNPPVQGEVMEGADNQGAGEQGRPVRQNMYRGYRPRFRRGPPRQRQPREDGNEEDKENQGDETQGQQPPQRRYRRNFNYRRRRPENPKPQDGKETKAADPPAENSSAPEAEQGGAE

Assays:
[1] = molecular target: Ubiquitin-specific peptidase 10 (rat (endogenous in PC12)) (UniProt Q3KR59); experiment: co-IP; PC12 cell lysate, precleared, immunoprecipitated with anti-USP10 or IgG overnight at 4°C, protein A/G plus agarose; blots with anti-USP10 and anti-YBX1
[2] = molecular target: Recombinant glutathione transferase-USP10 (UniProt Q3KR59); experiment: pull-down; GST-USP10 or GST on glutathione Sepharose 4B microspheres added to total lysate of PC12 cells, overnight at 4°C; blots with anti-USP10 and anti-YBX1; only the target purified

Y-box binding protein-1 (from UniProt P62961 1-322)
binding [1]: binds
binding [2]: binds
